About 610 (0.16%) of roughly 390,000 compounds were called active. Inconclusive results, whose numbers are uncertain, are shown with a selection of clear calls. The call rests on the fitted dose curve; in most records, active means well fitted inhibition curve with a large enough effect; inconclusive means small, poorly fitted or top-dose-only effect, or effect the other way, or another doubt; inactive means no such curve, though single readings can be large or run the other way. Potencies of inconclusive entries are doubtful fits and often do not repeat.
Experiment: Nrf2 qHTS screen for inhibitors: counterscreen for cytotoxicity
Conditions: A549 ARE-Fluc cells, CellTiter-Fluor viability, 18-24 h; series mostly up to 46 µM
How it was run: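 Cytotoxicity counterscreen: CellTiter-Fluor fluorescence was measured in A549 ARE_Fluc cells after 18-24 h of compound exposure in a concentration series. The subsequent BugLite luminescent read reports ARE-luciferase activity.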
With `O=NNc1nc2ccccc2n1Cc1ccccc1` the Potency was inconclusive: 20.6 µM [falling, partial curve, poor fit]. In the case of `O=C(NCCCCCCNC(=O)c1ccc(Br)s1)c1ccc(Br)s1`, the Potency was inconclusive: 11.6 µM [falling, partial curve, poor fit]. For `CC[C@]12c3[nH]c4cc(-c5ccco5)ccc4c3CCN1C(=O)[C@@H](CC(=O)NCCC1=CCCCC1)C[C@@H]2C(=O)N1CCN(C(=O)C2CC2)CC1`, the Potency was inconclusive: 10.3 µM [falling, partial curve, poor fit]. With `CC(C)Nc1nc(Oc2cccc(Cl)c2Cl)cc(C(F)(F)F)n1` the Potency was inconclusive: 13 µM [activator, partial curve, poor fit]. With `COCc1nnc(NC(=O)c2ccc(S(=O)(=O)N3CCCc4ccccc43)cc2)o1` the Potency was inconclusive: 32.6 µM [falling, partial curve, poor fit]. In the case of `Cc1sc2nc(CN3CCCCC3)nc(Cl)c2c1C`, the Potency was “inactive”. In the case of `O=C(/C=C1\NC2(CCCC2)Cc2ccccc21)C(=O)N/N=C/c1ccccc1O`, the Potency was inconclusive: 16.4 µM [falling, single point]. In the case of `CCN1CC=C2C(C#N)=C(N)C(C#N)(C#N)C(c3cc(Cl)ccc3Cl)C2C1` (stereo unspecified), the Potency was “inactive”. With `COc1ccc(-c2[nH]ncc2N=Nc2ccccc2)cc1` the Potency was inconclusive: 18.4 µM [falling, single point]. With `COc1ccc(C2=CC(=O)C[C@H](CN3C(=O)c4ccccc4C3=O)N(C(=O)OC(C)(C)C)O2)cc1` the Potency was inconclusive: 18.4 µM [falling, partial curve, poor fit]. With `CCc1ccc(CNc2ccc(N3CCN(C(C)=O)CC3)cc2)cc1` the Potency was inconclusive: 18.4 µM [falling, partial curve, poor fit]. In the case of `N#CC1=C(N)OC2=C(CCc3ccccc32)C1c1ccccc1Cl` (stereo unspecified), the Potency was inconclusive: 29.1 µM [falling, partial curve, poor fit]. With `COC(=O)c1ccc2c(c1O)C(=O)c1ccccc1C2=O` the Potency was inconclusive: 25.9 µM [falling, single point]. For `O=C(N/N=C\c1ccc(Cl)cc1)C1=NOC2COC3(CCN(c4ccc([N+](=O)[O-])cc4)CC3)OCC12` (stereo unspecified), the Potency was inconclusive: 20.6 µM [falling, single point]. For `CCn1cc(S(=O)(=O)c2ccc(C)cc2)c(=O)c2cc(F)c(N3CCCCCC3)cc21`, the Potency was inconclusive: 32.6 µM [activator, partial curve, poor fit]. For `O=C(c1ccc(=O)oc1)N1CCN(C(c2ccccc2)c2ccccc2)CC1`, the Potency was inconclusive: 32.6 µM [falling, partial curve, poor fit]. For `Cc1onc(-c2ccccc2)c1-c1nnc(-c2ccccc2C(F)(F)F)o1`, the Potency was “inactive”. For `COc1ccc(-c2noc(CCC(=O)Nc3cccnc3)n2)cc1`, the Potency was “inactive”. For `O=C(C1CCC1)N1CCCc2cc(S(=O)(=O)Nc3ccc(F)cc3)ccc21`, the Potency was “inactive”. With `CC1(C)Cc2c(sc(NC(=S)NC(=O)c3ccccc3)c2C(=O)O)CO1` the Potency was “inactive”. In the case of `FC(F)(F)c1cnc(NNC(=S)Nc2ccc(Cl)cc2)c(Cl)c1`, the Potency was inconclusive: 29.1 µM [falling, partial curve, poor fit]. With `O=C(c1cc([N+](=O)[O-])ccc1N1CCCC1)N1CCCCC1` the Potency was inconclusive: 32.6 µM [falling, partial curve, poor fit]. For `CC1(C)Cc2c(sc(NC(=O)c3ccc(S(=O)(=O)N4CCCCCC4)cc3)c2C#N)C(C)(C)N1`, the Potency was inconclusive: 29.1 µM [falling, single point]. With `CCn1cc(CN2CCC(C(=O)Nc3cccc(-c4cccc(Cl)c4)c3)CC2)cn1` the Potency was inconclusive: 5.8 µM [falling, single point]. With `COc1ccc2[nH]c(C(=O)N3CCC(CO)(Cc4cccc(C(F)(F)F)c4)CC3)c(C)c2c1` the Potency was “inactive”. For `Cc1cc(Cl)ccc1OC(C)C(=O)N1CCCN(C(=O)C(C)Oc2ccc(Cl)cc2C)CC1` (stereo unspecified), the Potency was inconclusive: 20.6 µM [falling, single point]. With `COc1ccccc1C(CNC(=O)c1ccc(-c2ccccc2Cl)o1)N1CCCC1` (stereo unspecified) the Potency was inconclusive: 29.1 µM [falling, single point]. In the case of `COc1ccc(C2/C=C\CN(CC3CCCCC3)C(Cc3ccccc3)C(=O)N2Cc2ccc(F)cc2)cc1` (stereo unspecified), the Potency was “inactive”. With `CCCCN(CC)C(=O)Cn1nc(C)c2c(C)n(-c3ccccc3)nc2c1=O` the Potency was “inactive”. With `O=C(NCc1cccs1)c1cc(-c2cccs2)on1` the Potency was “inactive”. In the case of `Cc1ccc(C(=O)Nc2ccc(C(=O)/C=C/c3cccs3)cc2)cc1`, the Potency was inconclusive: 29.1 µM [falling, single point]. In the case of `COC(=O)c1[nH]c2cc(OC)ccc2c1NC(=O)CCN1CCN(c2cccc(C)c2C)CC1`, the Potency was inconclusive: 20.6 µM [falling, partial curve, poor fit]. For `N#CC1=C(N)OC2=C(CC/C2=C\c2ccccc2)C1c1ccccc1` (stereo unspecified), the Potency was inconclusive: 4.11 µM [activator, full curve, poor fit]. For `CCCCCCCCCCS(=O)(=O)N/N=C/c1ccc([N+](=O)[O-])cc1`, the Potency was inconclusive: 14.6 µM [falling, partial curve, poor fit]. For `Cc1ccc2cc(CN(CC3CCCO3)C(=S)Nc3ccccc3)c(=O)[nH]c2c1` (stereo unspecified), the Potency was inconclusive: 32.6 µM [falling, partial curve, poor fit]. For `Cc1ccccc1C(=O)N(C)c1ccccc1C(=O)NCc1ccccc1`, the Potency was inconclusive: 29.1 µM [activator, single point]. In the case of `CC1CN(C(=O)c2ccc(NS(=O)(=O)c3ccc(F)cc3)cc2)CC(C)O1` (stereo unspecified), the Potency was “inactive”. With `COc1ccc(-c2c(C)nn3c(N4CCC(C(=O)NCCN(C)C)CC4)cc(C)nc23)cc1OC` the Potency was inconclusive: 4.11 µM [activator, single point]. In the case of `O=C(NCCN1CCN(S(=O)(=O)c2ccc([N+](=O)[O-])cc2)CC1)C(=O)Nc1ccccc1`, the Potency was “inactive”. For `Cc1cc2ccccc2n1CCNC(=O)C(C)(C)C`, the Potency was “inactive”. For `CCCCN(Cc1cc2cc(OC)ccc2[nH]c1=O)C(=O)c1ccccn1`, the Potency was “inactive”. In the case of `O=C(O)CSc1sc(=S)sc1SCC(=O)O`, the Potency was inconclusive: 25.9 µM [falling, single point]. In the case of `CN(C)S(=O)(=O)c1cccc(NC(=O)CSc2nc3ccccc3n2-c2ccccc2)c1`, the Potency was inconclusive: 20.6 µM [falling, single point]. For `COc1ccc(C(CC(=O)NCc2ccccc2)N2Cc3ccccc3C2=O)cc1` (stereo unspecified), the Potency was “inactive”. In the case of `COc1cc(/C=C/C(=O)c2c(O)cc(C)oc2=O)cc(OC)c1O`, the Potency was “inactive”. In the case of `CCC(Oc1ccc(F)cc1)C(=O)Nc1nc(-c2ccc(F)cc2)ns1` (stereo unspecified), the Potency was inconclusive: 23.1 µM [falling, single point]. With `Cc1ccc(C2NC(=O)NC3=C2CCc2ccccc23)cc1` (stereo unspecified) the Potency was “inactive”. For `Cc1ccc(C2NC(=O)c3ccccc3N2)s1` (stereo unspecified), the Potency was inconclusive: 25.9 µM [falling, partial curve, poor fit]. For `CC(=O)N(C)c1ccc(N2CCOCC2)c2c1C(=O)c1ccccc1C2=O`, the Potency was inconclusive: 23.1 µM [falling, partial curve, poor fit]. With `COC(=O)c1ccc(NC(=O)CCc2c(C)nc3c(c2C)c(=O)n(C)c(=O)n3C)cc1` the Potency was inconclusive: 29.1 µM [falling, single point]. For `COc1ccccc1Cc1nc2ccccc2nc1SCC(=O)Nc1cccc(Cl)c1C`, the Potency was “inactive”. For `COc1ccc(CC(=O)Nc2nc(-c3ccncc3)cs2)cc1`, the Potency was “inactive”. In the case of `O=C(COC(=O)c1ccc[nH]c1=O)Nc1ccc(S(=O)(=O)N2CCCC2)cc1`, the Potency was “inactive”. For `N#Cc1c(N)nc2c(c1-c1ccc3c(c1)OCO3)CCc1ccccc1-2`, the Potency was inconclusive: 20.6 µM [falling, single point]. In the case of `C=CCc1ccc(OCCOc2cccc3ccc(C)nc23)c(OC)c1`, the Potency was inconclusive: 29.1 µM [falling, single point]. For `CC(=O)C1=C(O)C(=O)N(Cc2ccco2)C1c1ccccc1F` (stereo unspecified), the Potency was inconclusive: 16.4 µM [falling, partial curve, poor fit]. With `COc1ccc(NC(=O)C2CCC2)cc1S(=O)(=O)Nc1cc(C)ccc1Br` the Potency was inconclusive: 29.1 µM [falling, single point]. In the case of `Cc1ccc(-n2ncc(C(=O)Nc3ccc4c(c3)OCO4)c2C2CCN(C(=O)OC(C)(C)C)CC2)cc1`, the Potency was inconclusive: 20.6 µM [falling, partial curve, poor fit]. In the case of `CCn1nc(-c2ccccc2C)nc2c(=O)n(C)c(=O)nc1-2`, the Potency was active: 23.1 µM. For `CCc1nc(N2CCCCC2C)c2oc3ccccc3c2n1` (stereo unspecified), the Potency was inconclusive: 9.2 µM [falling, single point]. With `N#CC1=C(SCC(=O)c2ccccc2)NC2=C(C(=O)CCC2)C1c1ccco1` (stereo unspecified) the Potency was inconclusive: 11.6 µM [falling, partial curve]. For `COc1ccc2cc(/C=C3\SC(=S)NC3=O)c(N3CCOCC3)nc2c1`, the Potency was active: 18.4 µM. With `O=S(=O)(c1ccc(Nc2ccc(-c3ccc4c(c3)OCCO4)nn2)cc1)N1CCCC1` the Potency was inconclusive: 16.4 µM [falling, partial curve, poor fit]. For `Cc1cccc(NC(=O)c2cc(NC(=O)c3ccco3)ccc2N2CCCCC2)c1`, the Potency was inconclusive: 0.731 µM [falling, single point]. With `CCN(c1ccc(OC)cc1)S(=O)(=O)c1nnc(NC(=O)c2ccc(C)cc2)s1` the Potency was “inactive”. With `O=C(COc1nc2ccccc2nc1N1CCOCC1)Nc1cccc(S(=O)(=O)N2CCCCC2)c1` the Potency was inconclusive: 23.1 µM [falling, partial curve, poor fit].
Potency means the concentration at half of the fitted maximal effect.
